Data set [1] is described as follows: Anti-agglomeration (AA) rocking cell test, varying conditions (condition sets 1-8). As to conditions: 8 condition sets of table 7.
Data set [2] is described as follows: Anti-agglomeration (AA) rocking cell test, standard conditions. Also on record: key: A ranking of 5 is the best possible score and on occasion may mean there are no visible hydrates in the system at all; a ranking of 2 represents a marginal hydrate control scenario at best; A ranking of 1 is a failure. As to conditions: 80 Bar gas pressure, additive free condensate, 2 volume % compound, 3 wt. % NaCl brine; scale 1 to 5.

SMILES strings stand for the structures.

For the molecule `CCCCCCCCCCCCCC[P+](CCCC)(CCCC)CCCC.[Cl-]` [TTPC, tributyl tetradecylphosphonium chloride], the “Number of tests (out of 8) at ranking 3 or above, Condensate” value in data set [1] (condensate) was found to be 5. Also, the “Number of tests (out of 8) at ranking 3 or above, Crude oil” value in data set [1] (crude oil) is listed as 4. For the same molecule, in data set [2], the “Ranking Stage 1 (Cooldown)” value was determined as 5; the “Ranking Stage 2 (Flowing and shut-in)” value is 5; the “Ranking Stage 3 (Immediate restart)” value is 5; the “Ranking Stage 4 (Restart to end test)” value was 5.
